Source: PubChem BioAssay AID652259 (Drosophila RNAi Screening Center, 2013)
The deposit covers about 22,000 reagents; this is an unselected part of those that have a named target and a result. In the full data, 233 (1.1%) were called active. 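Light values are raw, unnormalised plate reads; the ratio scores behind the reporter calls were not deposited.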 The numbers tell different reagents against one gene apart. Names joined by + are all predicted targets of the reagent. Not given: the amount of reagent, the time to read-out, the dose of the treatment.

Aim: 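Genome-wide hunt for genes that control Wingless pathway activity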 (primary screen)
Cells: Drosophila clone 8 imaginal disc epithelial cells
Knock-down reagent: long dsRNA against Drosophila genes
Treatment: pathway stimulated by co-transfected Wingless expression plasmid
Measured: 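Firefly luciferase from a tcf-site Wingless reporter, measured alongside co-transfected Renilla luciferase that tracks transfection; pathway stimulated by a Wingless plasmid; the firefly-to-Renilla ratio is not deposited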
Direction: firefly reporter light: higher = more Wg reporter light, before normalisation; Renilla control light: higher = more transfected or surviving cells
Hit rule: 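a knock-down is a candidate when at least two out of four statistical tests show it departing from its plate mean; one test alone signals a weak candidate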
Meaning of the calls: active = candidate regulator (raises or lowers reporter); inactive = not a candidate

DCAF12 gave firefly reporter light, replicate 1 = 4456; Renilla control light, replicate 1 = 2101; inactive. For Sps1 the deposit lists firefly reporter light, replicate 1 = 12055; Renilla control light, replicate 1 = 3376; inactive. After knock-down of dpr5, the screen gave firefly reporter light, replicate 1 = 7636; Renilla control light, replicate 1 = 2565; inactive. foxo #1 scored firefly reporter light, replicate 1 = 2320; Renilla control light, replicate 1 = 279; inactive. For foxo #2, the entry reads firefly reporter light, replicate 1 = 6613; Renilla control light, replicate 1 = 2483; inactive. After knock-down of CG11975, the record shows firefly reporter light, replicate 1 = 4760; Renilla control light, replicate 1 = 2188; inactive.

Ance-3 #1 scored firefly reporter light, replicate 1 = 3579; firefly reporter light, replicate 2 = 9164; Renilla control light, replicate 1 = 1305; Renilla control light, replicate 2 = 3379; inactive. Ance-3 #2 scored firefly reporter light, replicate 1 = 2567; firefly reporter light, replicate 2 = 6720; Renilla control light, replicate 1 = 1497; Renilla control light, replicate 2 = 3350; inactive. Against CG34227 #1, the entry reads firefly reporter light, replicate 1 = 7386; Renilla control light, replicate 1 = 2250; inactive. Silencing of CG34227 #2 came out at: firefly reporter light, replicate 1 = 6608; Renilla control light, replicate 1 = 2470; inactive. Knock-down of Zyx resulted in: firefly reporter light, replicate 1 = 3019; Renilla control light, replicate 1 = 1464; inactive. For Cubn the deposit lists firefly reporter light, replicate 1 = 2534; firefly reporter light, replicate 2 = 5620; Renilla control light, replicate 1 = 652; Renilla control light, replicate 2 = 1788; inactive.

2 neighbouring entries from above, for reference:
CG34227 #1 | firefly reporter light, replicate 1 = 7386; Renilla control light, replicate 1 = 2250; call = inactive
CG34227 #2 | firefly reporter light, replicate 1 = 6608; Renilla control light, replicate 1 = 2470; call = inactive

Next reagents follow.
With knock-down of CkIalpha #1, the record shows reporter change call, replicate 1 = Wg reporter activity raised; firefly reporter light, replicate 1 = 1.07e5; Renilla control light, replicate 1 = 7161; active. Knock-down of CkIalpha #2 resulted in: firefly reporter light, replicate 1 = 1.99e6; firefly reporter light, replicate 2 = 1.94e6; Renilla control light, replicate 1 = 1.29e5; Renilla control light, replicate 2 = 1.28e5; inactive. CG7386 showed firefly reporter light, replicate 1 = 1740; firefly reporter light, replicate 2 = 7152; Renilla control light, replicate 1 = 1212; Renilla control light, replicate 2 = 3298; inactive. With knock-down of mRpL44 the results were firefly reporter light, replicate 1 = 5749; Renilla control light, replicate 1 = 2409; inactive. After knock-down of CG34398 #1, the record shows firefly reporter light, replicate 1 = 29158; firefly reporter light, replicate 2 = 9.03e5; Renilla control light, replicate 1 = 18039; Renilla control light, replicate 2 = 5.33e5; inactive. CG34398 #2 scored firefly reporter light, replicate 1 = 4123; firefly reporter light, replicate 2 = 10018; Renilla control light, replicate 1 = 1063; Renilla control light, replicate 2 = 2150; inactive.

After knock-down of CG34398 #3, the screen gave firefly reporter light, replicate 1 = 10405; Renilla control light, replicate 1 = 3078; inactive. With knock-down of CG34398 #4, the screen gave firefly reporter light, replicate 1 = 2258; firefly reporter light, replicate 2 = 8391; Renilla control light, replicate 1 = 1252; Renilla control light, replicate 2 = 2775; inactive. Against Nab2 the deposit lists firefly reporter light, replicate 1 = 4757; firefly reporter light, replicate 2 = 3367; Renilla control light, replicate 1 = 1467; Renilla control light, replicate 2 = 1434; inactive. After knock-down of CG31198, the record shows firefly reporter light, replicate 1 = 2626; firefly reporter light, replicate 2 = 7366; Renilla control light, replicate 1 = 1285; Renilla control light, replicate 2 = 2069; inactive. CG32694 #1 showed firefly reporter light, replicate 1 = 13898; Renilla control light, replicate 1 = 6381; inactive. Depletion of CG32694 #2 came out at: firefly reporter light, replicate 1 = 17701; Renilla control light, replicate 1 = 10667; inactive.

Silencing of CG32694 #3 came out at: firefly reporter light, replicate 1 = 3.67e5; firefly reporter light, replicate 2 = 4.23e5; Renilla control light, replicate 1 = 1.36e5; Renilla control light, replicate 2 = 1.05e5; inactive. With knock-down of kappaB-Ras + CG30503 #1, the record shows firefly reporter light, replicate 1 = 2167; firefly reporter light, replicate 2 = 5057; Renilla control light, replicate 1 = 663; Renilla control light, replicate 2 = 1174; inactive. With knock-down of kappaB-Ras + CG30503 #2, the screen gave firefly reporter light, replicate 1 = 3364; firefly reporter light, replicate 2 = 7660; Renilla control light, replicate 1 = 945; Renilla control light, replicate 2 = 2557; inactive. After knock-down of IP3K2 #1, the screen gave firefly reporter light, replicate 1 = 24650; Renilla control light, replicate 1 = 11828; inactive. After knock-down of IP3K2 #2, the screen gave firefly reporter light, replicate 1 = 23929; Renilla control light, replicate 1 = 10198; inactive. IP3K2 #3 gave firefly reporter light, replicate 1 = 7.41e5; firefly reporter light, replicate 2 = 6.84e5; Renilla control light, replicate 1 = 3.09e5; Renilla control light, replicate 2 = 1.66e5; inactive.

With knock-down of CG12869 the results were firefly reporter light, replicate 1 = 4484; Renilla control light, replicate 1 = 1687; inactive. For CG31862 the deposit lists firefly reporter light, replicate 1 = 20957; Renilla control light, replicate 1 = 12331; inactive.
